The name of at least one read-out is uncertain.
Test: Solubilization of pigment from Carophyll Pink into fish-oil with water and surfactant; absorbance of filtered oil-phase
Conditions: Table 6; type A; mix 3 g, surfactant 3 g, fish-oil Tobis 34 g

sorbitan monooleate [Sorbitan ester monooleate]
% recovery after 1 day: (16.7) %
